In US7598046B2 (priority 2003, dated 2009) one finds binding data, which are given here for one substance.

Chains of the proteins cited; added tags and fusions are not shown. Residues count along the entry.
UniProt P35951, residues 22-862: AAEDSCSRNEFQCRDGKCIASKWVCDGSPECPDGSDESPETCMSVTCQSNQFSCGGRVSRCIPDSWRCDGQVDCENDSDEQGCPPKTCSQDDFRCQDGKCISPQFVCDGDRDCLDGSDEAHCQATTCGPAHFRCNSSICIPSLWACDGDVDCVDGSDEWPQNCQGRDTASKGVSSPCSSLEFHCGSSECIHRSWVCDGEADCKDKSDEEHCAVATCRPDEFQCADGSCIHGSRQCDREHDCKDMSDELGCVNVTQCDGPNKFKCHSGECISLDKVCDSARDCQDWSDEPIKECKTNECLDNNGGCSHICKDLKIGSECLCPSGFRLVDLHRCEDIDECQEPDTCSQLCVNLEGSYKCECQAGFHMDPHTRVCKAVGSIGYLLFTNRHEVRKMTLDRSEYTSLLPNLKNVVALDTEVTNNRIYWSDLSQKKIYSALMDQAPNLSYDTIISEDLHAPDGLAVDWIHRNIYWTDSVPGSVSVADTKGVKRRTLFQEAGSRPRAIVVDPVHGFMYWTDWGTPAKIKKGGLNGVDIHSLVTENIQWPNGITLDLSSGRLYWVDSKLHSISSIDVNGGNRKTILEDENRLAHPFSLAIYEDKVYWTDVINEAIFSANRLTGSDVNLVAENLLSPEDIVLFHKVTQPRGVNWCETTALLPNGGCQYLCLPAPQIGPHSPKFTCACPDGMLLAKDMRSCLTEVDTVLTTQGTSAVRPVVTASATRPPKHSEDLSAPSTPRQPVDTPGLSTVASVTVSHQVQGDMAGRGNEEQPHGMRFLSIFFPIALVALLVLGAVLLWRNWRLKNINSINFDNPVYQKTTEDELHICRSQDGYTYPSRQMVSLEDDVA
UniProt P04114, residues 28-4563: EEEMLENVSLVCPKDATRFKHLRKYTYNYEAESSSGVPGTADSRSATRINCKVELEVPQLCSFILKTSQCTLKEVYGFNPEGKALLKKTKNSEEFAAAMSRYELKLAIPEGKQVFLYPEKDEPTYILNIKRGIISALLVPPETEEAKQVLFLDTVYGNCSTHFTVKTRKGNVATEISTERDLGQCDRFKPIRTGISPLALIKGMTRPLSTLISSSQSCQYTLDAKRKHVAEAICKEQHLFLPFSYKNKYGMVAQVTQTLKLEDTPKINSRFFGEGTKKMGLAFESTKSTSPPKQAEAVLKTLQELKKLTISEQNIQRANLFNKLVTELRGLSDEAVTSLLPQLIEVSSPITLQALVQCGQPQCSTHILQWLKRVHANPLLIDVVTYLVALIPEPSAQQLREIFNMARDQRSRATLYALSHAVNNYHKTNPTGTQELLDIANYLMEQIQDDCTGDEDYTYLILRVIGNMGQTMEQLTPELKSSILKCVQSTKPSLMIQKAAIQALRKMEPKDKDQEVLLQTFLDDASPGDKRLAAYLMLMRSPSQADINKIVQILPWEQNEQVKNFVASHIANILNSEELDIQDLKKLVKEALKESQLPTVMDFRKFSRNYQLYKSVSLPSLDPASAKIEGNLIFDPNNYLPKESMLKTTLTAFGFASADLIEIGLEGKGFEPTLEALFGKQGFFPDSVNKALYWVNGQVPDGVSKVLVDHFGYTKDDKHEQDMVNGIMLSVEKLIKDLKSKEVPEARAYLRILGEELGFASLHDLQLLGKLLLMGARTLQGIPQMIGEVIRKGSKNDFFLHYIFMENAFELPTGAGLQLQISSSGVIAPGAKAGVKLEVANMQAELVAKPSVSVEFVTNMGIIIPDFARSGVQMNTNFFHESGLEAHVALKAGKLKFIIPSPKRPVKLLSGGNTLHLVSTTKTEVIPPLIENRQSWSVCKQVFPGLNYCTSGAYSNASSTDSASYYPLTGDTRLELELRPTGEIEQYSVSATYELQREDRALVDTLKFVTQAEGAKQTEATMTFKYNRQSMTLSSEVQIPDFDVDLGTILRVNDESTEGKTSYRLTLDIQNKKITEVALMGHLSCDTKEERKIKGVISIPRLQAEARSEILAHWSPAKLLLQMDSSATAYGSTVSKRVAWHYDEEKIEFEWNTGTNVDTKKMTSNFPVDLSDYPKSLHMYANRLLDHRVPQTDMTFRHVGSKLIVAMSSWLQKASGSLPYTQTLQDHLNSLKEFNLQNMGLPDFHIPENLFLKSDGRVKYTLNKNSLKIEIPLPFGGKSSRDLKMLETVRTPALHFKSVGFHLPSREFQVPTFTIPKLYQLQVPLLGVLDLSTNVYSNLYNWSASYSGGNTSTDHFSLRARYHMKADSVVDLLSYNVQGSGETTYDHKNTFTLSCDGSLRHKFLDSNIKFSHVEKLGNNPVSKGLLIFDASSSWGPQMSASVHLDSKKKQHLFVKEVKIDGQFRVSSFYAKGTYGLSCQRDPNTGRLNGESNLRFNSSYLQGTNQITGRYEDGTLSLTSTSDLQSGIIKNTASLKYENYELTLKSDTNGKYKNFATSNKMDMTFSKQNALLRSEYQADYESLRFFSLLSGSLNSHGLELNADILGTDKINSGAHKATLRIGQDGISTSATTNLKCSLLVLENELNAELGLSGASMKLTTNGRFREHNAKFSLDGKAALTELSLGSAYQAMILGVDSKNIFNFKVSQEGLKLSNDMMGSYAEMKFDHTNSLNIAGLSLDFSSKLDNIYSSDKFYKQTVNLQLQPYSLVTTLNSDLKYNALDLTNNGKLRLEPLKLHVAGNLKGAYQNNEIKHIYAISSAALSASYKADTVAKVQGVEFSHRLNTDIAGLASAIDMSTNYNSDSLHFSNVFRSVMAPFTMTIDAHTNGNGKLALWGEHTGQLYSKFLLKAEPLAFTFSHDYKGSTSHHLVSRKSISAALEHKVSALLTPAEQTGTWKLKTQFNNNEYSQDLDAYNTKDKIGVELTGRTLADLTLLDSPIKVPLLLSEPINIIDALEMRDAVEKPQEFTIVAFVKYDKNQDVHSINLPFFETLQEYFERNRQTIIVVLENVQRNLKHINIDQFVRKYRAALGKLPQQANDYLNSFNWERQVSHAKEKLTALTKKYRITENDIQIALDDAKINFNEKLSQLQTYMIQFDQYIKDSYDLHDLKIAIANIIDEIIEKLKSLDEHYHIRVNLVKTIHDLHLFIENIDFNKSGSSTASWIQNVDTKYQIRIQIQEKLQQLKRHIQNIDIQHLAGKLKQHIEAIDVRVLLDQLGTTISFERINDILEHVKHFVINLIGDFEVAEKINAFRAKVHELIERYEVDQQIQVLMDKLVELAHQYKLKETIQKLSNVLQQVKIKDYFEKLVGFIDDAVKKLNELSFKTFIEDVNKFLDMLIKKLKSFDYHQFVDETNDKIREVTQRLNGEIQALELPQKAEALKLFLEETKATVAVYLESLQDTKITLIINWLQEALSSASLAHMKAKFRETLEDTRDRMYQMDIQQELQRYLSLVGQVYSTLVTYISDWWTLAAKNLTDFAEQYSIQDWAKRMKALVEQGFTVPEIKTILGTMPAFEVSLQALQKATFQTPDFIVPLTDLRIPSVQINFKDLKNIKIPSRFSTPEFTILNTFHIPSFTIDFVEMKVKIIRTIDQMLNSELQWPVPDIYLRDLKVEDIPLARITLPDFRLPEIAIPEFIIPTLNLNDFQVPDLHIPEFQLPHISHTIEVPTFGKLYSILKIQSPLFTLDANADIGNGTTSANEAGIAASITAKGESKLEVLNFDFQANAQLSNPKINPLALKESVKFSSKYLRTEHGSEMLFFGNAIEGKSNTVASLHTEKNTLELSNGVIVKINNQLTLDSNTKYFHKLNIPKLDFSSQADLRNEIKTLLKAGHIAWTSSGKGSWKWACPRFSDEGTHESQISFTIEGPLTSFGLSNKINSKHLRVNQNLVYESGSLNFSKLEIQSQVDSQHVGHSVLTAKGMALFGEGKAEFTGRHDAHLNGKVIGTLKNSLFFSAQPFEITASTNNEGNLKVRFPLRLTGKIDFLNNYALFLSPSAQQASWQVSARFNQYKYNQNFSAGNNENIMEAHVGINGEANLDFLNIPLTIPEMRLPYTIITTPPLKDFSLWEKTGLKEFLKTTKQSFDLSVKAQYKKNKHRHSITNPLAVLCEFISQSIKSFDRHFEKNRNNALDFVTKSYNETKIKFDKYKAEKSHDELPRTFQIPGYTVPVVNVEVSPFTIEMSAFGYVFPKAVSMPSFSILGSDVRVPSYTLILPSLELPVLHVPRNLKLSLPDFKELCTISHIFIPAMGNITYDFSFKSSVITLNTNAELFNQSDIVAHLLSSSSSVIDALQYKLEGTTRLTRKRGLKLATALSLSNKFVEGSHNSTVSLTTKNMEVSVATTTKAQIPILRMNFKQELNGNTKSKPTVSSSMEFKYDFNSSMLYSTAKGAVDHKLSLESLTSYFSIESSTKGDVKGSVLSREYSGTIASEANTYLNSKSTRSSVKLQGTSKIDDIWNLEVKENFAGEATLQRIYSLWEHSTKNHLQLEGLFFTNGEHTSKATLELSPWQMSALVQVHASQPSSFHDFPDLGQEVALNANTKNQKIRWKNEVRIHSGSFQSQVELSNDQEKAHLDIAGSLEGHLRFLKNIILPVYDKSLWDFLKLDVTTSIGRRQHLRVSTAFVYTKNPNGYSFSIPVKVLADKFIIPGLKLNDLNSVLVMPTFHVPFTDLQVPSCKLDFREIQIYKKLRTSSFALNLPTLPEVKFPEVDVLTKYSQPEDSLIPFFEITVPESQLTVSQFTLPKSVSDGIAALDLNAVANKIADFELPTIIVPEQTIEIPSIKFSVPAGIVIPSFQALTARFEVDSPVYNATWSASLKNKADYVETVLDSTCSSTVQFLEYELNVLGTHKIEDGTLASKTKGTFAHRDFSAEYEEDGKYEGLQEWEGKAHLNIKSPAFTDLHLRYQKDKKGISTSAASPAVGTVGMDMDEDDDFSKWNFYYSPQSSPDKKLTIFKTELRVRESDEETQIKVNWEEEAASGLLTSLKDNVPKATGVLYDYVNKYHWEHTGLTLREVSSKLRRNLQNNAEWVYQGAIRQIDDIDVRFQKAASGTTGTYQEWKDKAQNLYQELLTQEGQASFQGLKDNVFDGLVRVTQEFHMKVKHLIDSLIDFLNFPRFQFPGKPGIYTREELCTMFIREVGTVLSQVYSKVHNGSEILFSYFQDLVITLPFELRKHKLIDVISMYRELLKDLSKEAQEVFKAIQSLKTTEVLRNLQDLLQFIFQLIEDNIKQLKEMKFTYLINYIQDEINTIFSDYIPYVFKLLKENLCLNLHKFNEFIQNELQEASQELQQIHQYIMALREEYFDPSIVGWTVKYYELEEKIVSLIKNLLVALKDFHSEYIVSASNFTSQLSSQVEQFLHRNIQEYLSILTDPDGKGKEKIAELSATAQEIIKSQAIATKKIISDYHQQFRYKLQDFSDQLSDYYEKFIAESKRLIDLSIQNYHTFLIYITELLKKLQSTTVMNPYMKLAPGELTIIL

Results are given in words; binding and its absence hold for the method and conditions named. Some entries that bind do so weakly or less than the wild type.

The target of this test is LDL receptor on mouse neuroblastoma N2a cells (sub-clones #23 and #60) (mouse) (UniProt P35951). The experiment in a line: fluorescence microscopy of N2a sub-clones #23 and #60, on ice (surface binding) or 37 C (uptake).

With “DiI labeled LDL (Molecular Probes L-3482) (from UniProt P04114 28-4563)”, the binding entry was “binds”.
